Assay results reported in article PMC2266940.
These are yes or no findings as the source states them, for the method shown. In cells and extracts the contact can be indirect. Some binding calls cover weakened binding; strength is not graded here.

T1: ETO, endogenous in primary placental cells (human (endogenous in primary placental cells)) (UniProt Q06455)
T1 sequence: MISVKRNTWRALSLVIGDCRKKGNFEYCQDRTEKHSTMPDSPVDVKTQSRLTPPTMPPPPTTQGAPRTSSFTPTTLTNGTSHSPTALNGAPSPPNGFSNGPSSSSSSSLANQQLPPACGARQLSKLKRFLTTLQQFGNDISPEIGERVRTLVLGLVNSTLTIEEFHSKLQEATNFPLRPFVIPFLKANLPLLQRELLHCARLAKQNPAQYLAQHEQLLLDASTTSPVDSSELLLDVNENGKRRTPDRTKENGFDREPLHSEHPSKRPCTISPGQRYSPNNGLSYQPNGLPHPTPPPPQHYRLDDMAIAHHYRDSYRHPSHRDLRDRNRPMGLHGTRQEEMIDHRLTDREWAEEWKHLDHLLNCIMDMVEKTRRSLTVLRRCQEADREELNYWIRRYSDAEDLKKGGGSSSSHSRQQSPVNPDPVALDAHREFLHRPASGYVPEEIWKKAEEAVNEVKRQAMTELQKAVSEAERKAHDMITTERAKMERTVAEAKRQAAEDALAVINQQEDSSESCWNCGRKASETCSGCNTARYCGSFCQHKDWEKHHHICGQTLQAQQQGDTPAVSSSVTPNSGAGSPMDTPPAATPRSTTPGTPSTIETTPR

T2: human SIN3B, endogenous in primary placental cells (human (endogenous in primary placental cells)) (UniProt O75182)
T2 sequence: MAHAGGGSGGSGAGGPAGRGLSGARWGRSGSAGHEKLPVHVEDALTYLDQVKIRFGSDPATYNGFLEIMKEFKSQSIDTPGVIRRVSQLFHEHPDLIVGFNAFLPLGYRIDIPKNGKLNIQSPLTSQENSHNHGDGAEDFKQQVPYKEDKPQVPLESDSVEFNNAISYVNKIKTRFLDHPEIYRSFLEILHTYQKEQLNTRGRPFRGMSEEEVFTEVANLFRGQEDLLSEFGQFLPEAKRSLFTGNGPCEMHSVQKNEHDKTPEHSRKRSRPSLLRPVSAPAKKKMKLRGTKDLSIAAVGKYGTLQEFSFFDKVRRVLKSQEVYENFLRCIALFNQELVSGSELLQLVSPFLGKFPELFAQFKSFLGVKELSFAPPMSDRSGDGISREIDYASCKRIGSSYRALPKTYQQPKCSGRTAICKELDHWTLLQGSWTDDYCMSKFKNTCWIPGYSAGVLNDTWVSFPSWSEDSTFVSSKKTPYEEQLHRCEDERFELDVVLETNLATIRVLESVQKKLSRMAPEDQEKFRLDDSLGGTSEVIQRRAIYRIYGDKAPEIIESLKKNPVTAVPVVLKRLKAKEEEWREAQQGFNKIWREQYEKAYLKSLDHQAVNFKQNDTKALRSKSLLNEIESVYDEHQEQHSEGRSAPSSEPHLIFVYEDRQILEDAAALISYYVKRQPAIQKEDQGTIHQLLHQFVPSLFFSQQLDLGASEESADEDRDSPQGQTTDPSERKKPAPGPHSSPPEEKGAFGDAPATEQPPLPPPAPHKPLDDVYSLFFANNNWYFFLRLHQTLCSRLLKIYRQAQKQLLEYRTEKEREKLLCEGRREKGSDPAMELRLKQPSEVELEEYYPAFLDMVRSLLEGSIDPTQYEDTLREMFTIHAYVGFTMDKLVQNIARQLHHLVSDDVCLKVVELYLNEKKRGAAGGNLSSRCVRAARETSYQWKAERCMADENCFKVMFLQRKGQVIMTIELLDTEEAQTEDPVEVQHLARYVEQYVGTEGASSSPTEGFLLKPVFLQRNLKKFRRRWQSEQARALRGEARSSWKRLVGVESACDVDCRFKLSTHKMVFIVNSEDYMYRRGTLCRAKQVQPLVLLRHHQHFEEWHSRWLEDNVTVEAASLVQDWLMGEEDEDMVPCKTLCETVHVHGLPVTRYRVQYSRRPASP


How the values were obtained:
[1] = biological target: T1, ETO, endogenous in primary placental cells (human (endogenous in primary placental cells)); test: co-IP; endogenous proteins in nuclear extracts of primary placental cells (420 mM NaCl extract diluted 1:20 in lysis buffer); IP with α-SIN3B or α-MTG, Western with α-SIN3B, α-ETO, α-MTGR1, α-MTG16
[2] = biological target: T2, human SIN3B, endogenous in primary placental cells (human (endogenous in primary placental cells)); test: as above

Binder | binding [1] | binding [2]
human SIN3B, endogenous in primary placental cells (protein, UniProt O75182 1-1162) MAHAGGGSGGSGAGGPAGRGLSGARWGRSGSAGHEKLPVHVEDALTYLDQVKIRFGSDPATYNGFLEIMKEFKSQSIDTPGVIRRVSQLFHEHPDLIVGFNAFLPLGYRIDIPKNGKLNIQSPLTSQENSHNHGDGAEDFKQQVPYKEDKPQVPLESDSVEFNNAISYVNKIKTRFLDHPEIYRSFLEILHTYQKEQLNTRGRPFRGMSEEEVFTEVANLFRGQEDLLSEFGQFLPEAKRSLFTGNGPCEMHSVQKNEHDKTPEHSRKRSRPSLLRPVSAPAKKKMKLRGTKDLSIAAVGKYGTLQEFSFFDKVRRVLKSQEVYENFLRCIALFNQELVSGSELLQLVSPFLGKFPELFAQFKSFLGVKELSFAPPMSDRSGDGISREIDYASCKRIGSSYRALPKTYQQPKCSGRTAICKELDHWTLLQGSWTDDYCMSKFKNTCWIPGYSAGVLNDTWVSFPSWSEDSTFVSSKKTPYEEQLHRCEDERFELDVVLETNLATIRVLESVQKKLSRMAPEDQEKFRLDDSLGGTSEVIQRRAIYRIYGDKAPEIIESLKKNPVTAVPVVLKRLKAKEEEWREAQQGFNKIWREQYEKAYLKSLDHQAVNFKQNDTKALRSKSLLNEIESVYDEHQEQHSEGRSAPSSEPHLIFVYEDRQILEDAAALISYYVKRQPAIQKEDQGTIHQLLHQFVPSLFFSQQLDLGASEESADEDRDSPQGQTTDPSERKKPAPGPHSSPPEEKGAFGDAPATEQPPLPPPAPHKPLDDVYSLFFANNNWYFFLRLHQTLCSRLLKIYRQAQKQLLEYRTEKEREKLLCEGRREKGSDPAMELRLKQPSEVELEEYYPAFLDMVRSLLEGSIDPTQYEDTLREMFTIHAYVGFTMDKLVQNIARQLHHLVSDDVCLKVVELYLNEKKRGAAGGNLSSRCVRAARETSYQWKAERCMADENCFKVMFLQRKGQVIMTIELLDTEEAQTEDPVEVQHLARYVEQYVGTEGASSSPTEGFLLKPVFLQRNLKKFRRRWQSEQARALRGEARSSWKRLVGVESACDVDCRFKLSTHKMVFIVNSEDYMYRRGTLCRAKQVQPLVLLRHHQHFEEWHSRWLEDNVTVEAASLVQDWLMGEEDEDMVPCKTLCETVHVHGLPVTRYRVQYSRRPASP | binds | 
ETO, endogenous in primary placental cells (protein, UniProt Q06455 1-604) MISVKRNTWRALSLVIGDCRKKGNFEYCQDRTEKHSTMPDSPVDVKTQSRLTPPTMPPPPTTQGAPRTSSFTPTTLTNGTSHSPTALNGAPSPPNGFSNGPSSSSSSSLANQQLPPACGARQLSKLKRFLTTLQQFGNDISPEIGERVRTLVLGLVNSTLTIEEFHSKLQEATNFPLRPFVIPFLKANLPLLQRELLHCARLAKQNPAQYLAQHEQLLLDASTTSPVDSSELLLDVNENGKRRTPDRTKENGFDREPLHSEHPSKRPCTISPGQRYSPNNGLSYQPNGLPHPTPPPPQHYRLDDMAIAHHYRDSYRHPSHRDLRDRNRPMGLHGTRQEEMIDHRLTDREWAEEWKHLDHLLNCIMDMVEKTRRSLTVLRRCQEADREELNYWIRRYSDAEDLKKGGGSSSSHSRQQSPVNPDPVALDAHREFLHRPASGYVPEEIWKKAEEAVNEVKRQAMTELQKAVSEAERKAHDMITTERAKMERTVAEAKRQAAEDALAVINQQEDSSESCWNCGRKASETCSGCNTARYCGSFCQHKDWEKHHHICGQTLQAQQQGDTPAVSSSVTPNSGAGSPMDTPPAATPRSTTPGTPSTIETTPR |  | binds
MTGR1, endogenous in primary placental cells (protein, UniProt O43439 1-604) MAKESGISLKEIQVLARQWKVGPEKRVPAMPGSPVEVKIQSRSSPPTMPPLPPINPGGPRPVSFTPTALSNGINHSPPTLNGAPSPPQRFSNGPASSTSSALTNQQLPATCGARQLSKLKRFLTTLQQFGNDISPEIGEKVRTLVLALVNSTVTIEEFHCKLQEATNFPLRPFVIPFLKANLPLLQRELLHCARAAKQTPSQYLAQHEHLLLNTSIASPADSSELLMEVHGNGKRPSPERREENSFDRDTIAPEPPAKRVCTISPAPRHSPALTVPLMNPGGQFHPTPPPLQHYTLEDIATSHLYREPNKMLEHREVRDRHHSLGLNGGYQDELVDHRLTEREWADEWKHLDHALNCIMEMVEKTRRSMAVLRRCQESDREELNYWKRRYNENTELRKTGTELVSRQHSPGSADSLSNDSQREFNSRPGTGYVPVEFWKKTEEAVNKVKIQAMSEVQKAVAEAEQKAFEVIATERARMEQTIADVKRQAAEDAFLVINEQEESTENCWNCGRKASETCSGCNIARYCGSFCQHKDWERHHRLCGQNLHGQSPHGQGRPLLPVGRGSSARSADCSVPSPALDKTSATTSRSSTPASVTAIDTNGL |  | no binding
MTG16, endogenous in primary placental cells (protein, UniProt O75081 1-653) MPASRLRDRAASSASGSTCGSMSQTHPVLESGLLASAGCSAPRGPRKGGPAPVDRKAKASAMPDSPAEVKTQPRSTPPSMPPPPPAASQGATRPPSFTPHTHREDGPATLPHGRFHGCLKWSMVCLLMNGSSHSPTAINGAPCTPNGFSNGPATSSTASLSTQHLPPACGARQLSKLKRFLTTLQQFGSDISPEIGERVRTLVLGLVNSTLTIEEFHSKLQEATNFPLRPFVIPFLKANLPLLQRELLHCARLAKQTPAQYLAQHEQLLLDASASSPIDSSELLLEVNENGKRRTPDRTKENGSDRDPLHPEHLSKRPCTLNPAQRYSPSNGPPQPTPPPHYRLEDIAMAHHFRDAYRHPDPRELRERHRPLVVPGSRQEEVIDHKLTEREWAEEWKHLNNLLNCIMDMVEKTRRSLTVLRRCQEADREELNHWARRYSDAEDTKKGPAPAAARPRSSSAGPEGPQLDVPREFLPRTLTGYVPEDIWRKAEEAVNEVKRQAMSELQKAVSDAERKAHELITTERAKMERALAEAKRQASEDALTVINQQEDSSESCWNCGRKASETCSGCNAARYCGSFCQHRDWEKHHHVCGQSLQGPTAVVADPVPGPPEAAHSLGPSLPVGAASPSEAGSAGPSRPGSPSPPGPLDTVPR |  | no binding
